{"source": "PubChem BioAssay AID1347075", "about": "(National Center for Advancing Translational Sciences (NCATS), 2019)", "note": "The whole screen tested about 400,000 compounds, of which about 5,500 (1.4%) were called active. Inconclusive results, whose numbers are uncertain, are shown with a selection of clear calls. Calls follow the shape of the dose curve; as a rule, active = well fitted cell-killing curve with a large enough effect; inconclusive = small, poorly fitted or top-dose-only effect, or effect the other way; inactive = flat fitted curve, though single readings scatter. Potencies of inconclusive entries are doubtful fits and often do not repeat. % is scaled to controls: 0 for no effect and ±100 for the full control effect; potency is read from the fitted curve at half-maximal effect."}
{"assay": "qHTS assay for MDR1-selective chemotherapeutics: Primary screen using the parental adenocarcinoma cell KB-3-1; also: nearly all actives have a fitted effect of over 60% in size", "details": "KB-3-1 viability, CellTiter-Glo ATP luminescence, 72 h; activity change, negative = cytotoxic: at 46.1 µM (top of the series)", "procedure,_shortened": "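Parental KB-3-1 adenocarcinoma cells in phenol-red-free DMEM with 10% FBS were pin-treated with compounds at several concentrations, incubated 72 h at 37 °C, and viability read by CellTiter-Glo luminescence; concentration-effect curves were fitted after normalization.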"}
{"smiles": "COc1ccc(N2CCN(c3cncc(C)n3)CC2)cc1", "Potency": "inactive"}
{"smiles": "COc1cc(C2Nc3ccccc3C(=O)N2c2ccc3c(c2)OCCO3)ccc1OCC(C)C", "note": "(stereo unspecified)", "Potency": "inconclusive: 8.2 µM [cytotoxic, partial curve]"}
{"smiles": "Cc1ccc(S(=O)(=O)/N=C(\\N)c2ccc(Cl)cc2)cc1", "Potency": "inactive"}
{"smiles": "Cc1ccccc1[C@@]1(C)ON(c2ccccc2C(F)(F)F)C1=O", "Potency": "inconclusive: 23.1 µM [cytotoxic, single point]"}
{"smiles": "CNC(C)C#Cc1ccc2oc3cc(C)c(C)cc3c(=O)c2c1", "note": "(stereo unspecified)", "Potency": "inconclusive: 29.1 µM [cytotoxic, single point]"}
{"smiles": "CC(C)c1ccc(-c2nc3ccccc3s2)cc1", "Potency": "inactive"}
{"smiles": "CCOc1ccccc1NC(=O)c1nc(-c2ccccc2)oc1C", "Potency": "inconclusive: 18.4 µM [cytotoxic, single point]"}
{"smiles": "O=[N+]([O-])c1ccc(N/N=C/c2sc(N3CCOCC3)nc2-c2ccccc2)c(S(=O)(=O)Nc2ccc(Cl)cc2)c1", "Potency": "active: 2.31 µM"}
{"smiles": "CCOC(=O)c1c(C)c(C(=O)Nc2ccc(N(C)C)cc2)c(C)n1CC", "Potency": "active: 7.31 µM"}
{"smiles": "O=C(NC(=S)NCC1CCCO1)c1ccccc1", "note": "(stereo unspecified)", "Potency": "inconclusive: 29.1 µM [rising, single point]"}
{"smiles": "Oc1ccc(C=NNC(=S)Nc2ccccc2)nc1", "Potency": "active: 16.4 µM"}
{"smiles": "COc1ccc(C(=O)N2CCCC(c3cc(C(=O)NCc4ccc(F)cc4)no3)C2)cc1", "note": "(stereo unspecified)", "Potency": "inconclusive: 32.6 µM [cytotoxic, partial curve, poor fit]"}
{"smiles": "CC1CCCCN1S(=O)(=O)c1ccc(C(=O)Nc2nnc(-c3ccccn3)o2)cc1", "note": "(stereo unspecified)", "Potency": "inconclusive: 18.4 µM [cytotoxic, partial curve, poor fit]"}
{"smiles": "C=CCN1C(=O)C(C)(C)N(C(C)=O)c2ccccc21", "Potency": "inactive"}
{"smiles": "Oc1ccc2ccccc2c1C=NNc1ccccn1", "Potency": "inconclusive: 2.06 µM [cytotoxic, partial curve, poor fit]"}
{"smiles": "CCN(c1ccccc1)S(=O)(=O)c1ccc(C(=O)NC2CCN(Cc3ccccc3)CC2)cc1", "Potency": "active: 16.4 µM"}
{"smiles": "CCn1c(-c2ccc(C(C)(C)C)cc2)n[nH]c1=S", "Potency": "inactive"}
{"smiles": "CCCOc1ccc(F)cc1-c1cc(C(=O)Nc2cc(OC)c(OC)c(OC)c2)[nH]n1", "Potency": "inconclusive: 29.1 µM [cytotoxic, single point]"}
{"smiles": "Cc1cccn2c(=O)cc(COc3ccc(NC(=O)c4cccc(F)c4)cc3)nc12", "Potency": "inactive"}
{"smiles": "CC(C)NC(=O)NC(=O)COC(=O)c1ccc(F)cc1F", "Potency": "inactive"}
{"smiles": "COc1ccc(C(CC(=O)Nc2ccc(C)cn2)N2Cc3ccccc3C2=O)cc1", "note": "(stereo unspecified)", "Potency": "inactive"}
{"smiles": "CCn1c(=O)c2cc(C(=O)NCCCN(C)Cc3ccccc3)sc2c2ccccc21", "Potency": "inconclusive: 14.6 µM [cytotoxic, partial curve]"}
{"smiles": "ClCc1csc(-c2ccc(Cl)cc2)n1", "Potency": "inactive"}
{"smiles": "COc1cccc(OC(=O)c2ccccc2)c1OC(=O)c1ccccc1", "Potency": "inconclusive: 29.1 µM [cytotoxic, single point]"}
{"smiles": "Cc1cccc(S(=O)(=O)N/N=c2\\sc3ccccc3n2C)c1", "Potency": "inactive"}
{"smiles": "CCCc1cc(=O)oc2cc3occ(C)c3cc12", "Potency": "inconclusive: 20.6 µM [cytotoxic, partial curve, poor fit]"}
{"smiles": "Cc1cc(C)cc(NC(=O)c2ccc(CN3CCc4ccccc4C3)cc2)c1", "Potency": "inconclusive: 29.1 µM [cytotoxic, partial curve, poor fit]"}
{"smiles": "O=C(CSc1ncc(C(F)(F)F)cc1Cl)N1CCN(S(=O)(=O)c2ccccc2)CC1", "Potency": "inconclusive: 29.1 µM [cytotoxic, partial curve, poor fit]"}
{"smiles": "C=CCn1c(SCC(=O)Nc2ncc(Cc3cc(Cl)ccc3Cl)s2)nnc1-c1ccncc1", "Potency": "inactive"}
{"smiles": "Cc1cc(-n2c(C)cc(C(=O)COc3cccnc3[N+](=O)[O-])c2C)no1", "Potency": "inconclusive: 29.1 µM [cytotoxic, single point]"}
{"smiles": "COc1cccc(-c2c(-c3ccccc3OC)ncn2Cc2cccc(-c3ccccc3)c2)c1", "Potency": "inconclusive: 25.9 µM [cytotoxic, partial curve, poor fit]"}
{"smiles": "COc1c(C(=O)Nc2ccc(Cc3ccncc3)cc2)ccc2ccccc12", "Potency": "active: 13 µM"}
{"smiles": "Fc1ccc(/C=N/NC(=S)Nc2ccc(Cl)cc2)cc1F", "Potency": "inactive"}
{"smiles": "C=Cc1ccc(Cn2c(=O)n(-c3ccc(C)cc3)c(=O)c3c2c2cc(OC)ccc2n3C)cc1", "Potency": "inactive"}
{"smiles": "ON=C(c1ccccc1)c1ccc2c3c(cccc13)CC2", "Potency": "inconclusive: 16.4 µM [cytotoxic, single point]"}
{"smiles": "CC1=C(C(=O)OCc2ccccc2)C(c2ccco2)C2=C(CC(C)(C)CC2=O)N1", "note": "(stereo unspecified)", "Potency": "inconclusive: 18.4 µM [cytotoxic, single point]"}
{"smiles": "COc1ccc(C=O)cc1COc1ccc2c(c1)OCO2", "Potency": "inconclusive: 18.4 µM [cytotoxic, single point]"}
{"smiles": "N#C/C(=C\\c1c(F)cccc1Cl)C(=O)NC1CC1", "Potency": "inactive"}
{"smiles": "Nc1cccc(Oc2cnccn2)c1", "Potency": "inactive"}
{"smiles": "Fc1ccc(CSc2nc3ccccc3[nH]2)cc1", "Potency": "inactive"}
{"smiles": "Cc1cc(-c2nc3ccccc3[nH]2)ccc1N", "Potency": "inconclusive: 29.1 µM [cytotoxic, single point]"}
{"smiles": "Cc1cccc(N2CCN(S(=O)(=O)c3ccc4c(c3)CC(C)N4C(=O)C3CC3)CC2)c1C", "note": "(stereo unspecified)", "Potency": "inconclusive: 23.1 µM [cytotoxic, single point]"}
{"smiles": "CCOC(=O)C1=C(CCc2ccccc2)NC(=O)NC1c1ccc2ccccc2c1", "note": "(stereo unspecified)", "Potency": "active: 23.1 µM"}
{"smiles": "CCOc1cc2c3c(c1)C(C)=CC(C)(C)N3C(=O)C2=O", "Potency": "active: 20.6 µM"}
{"smiles": "COc1cc2oc(=O)cc(CN(Cc3ccccc3)Cc3ccccc3)c2cc1Cl", "Potency": "inactive"}
{"smiles": "CCC(c1nnnn1CCc1ccccc1)N(Cc1ccco1)Cc1cc2c(C)ccc(C)c2[nH]c1=O", "note": "(stereo unspecified)", "Potency": "inconclusive: 23.1 µM [cytotoxic, single point]"}
{"smiles": "c1cnc(N2CCN(Cc3c[nH]c4ccccc34)CC2)nc1", "Potency": "inconclusive: 29.1 µM [cytotoxic, single point]"}
{"smiles": "CC1(C)OC(=O)C2(Cc3ccc(Cl)cc3N3CCCC32)C(=O)O1", "note": "(stereo unspecified)", "Potency": "inactive"}
{"smiles": "CN(C)S(=O)(=O)c1cccc(-c2nn(-c3ccccc3)cc2/C=C(\\C#N)c2nc3ccccc3[nH]2)c1", "Potency": "inactive"}
{"smiles": "C/C=C1\\NC(=O)[C@H](CC(N)=O)N(C)C(=O)C([C@@H](C)O)NC(=O)C(CCCc2ccc(OC)cc2)NC(=O)[C@H](C(C)C)NC(=O)/C(=C\\C)NC(=O)[C@H](O)[C@@H](C[C@@H](O)CCCCCCC)NC(=O)[C@H](C)NC(=O)CN(C)C(=O)[C@H](CCC(N)=O)NC1=O", "note": "(stereo partly specified)", "Potency": "active: 16.4 µM"}
{"smiles": "COc1ccc2nc(N)sc2c1", "Potency": "inconclusive: 23.1 µM [cytotoxic, partial curve, poor fit]"}
{"smiles": "CCn1cc2nc(SCC(=O)Nc3ccccc3C(F)(F)F)n(Cc3ccc(C)cc3)c(=O)c2n1", "Potency": "inconclusive: 29.1 µM [cytotoxic, single point]"}
{"smiles": "NNc1ncnc2c1cnn2-c1ccccc1", "Potency": "inconclusive: 20.6 µM [cytotoxic, single point]"}
{"smiles": "Cc1cc(NC(=O)NC2(C(F)(F)F)Oc3ccc(Cl)cc3O2)no1", "note": "(stereo unspecified)", "Potency": "inconclusive: 29.1 µM [cytotoxic, single point]"}
{"smiles": "CN1CCc2ccc(NC(=O)c3ccc(C(F)(F)F)cc3)cc2C1", "Potency": "inconclusive: 9.2 µM [cytotoxic, partial curve, poor fit]"}
{"smiles": "Cc1cccc(C)c1OCC(O)Cn1c2ccccc2c2ccccc21", "note": "(stereo unspecified)", "Potency": "inconclusive: 18.4 µM [cytotoxic, single point]"}
{"smiles": "Nn1c(SCC(=O)Nc2ccc(N3CCOCC3)cc2)nnc1-c1ccccc1F", "Potency": "inactive"}
{"smiles": "CCCN(CC(=O)Nc1ccccc1OC)CC(=O)c1c(N)n(Cc2ccccc2)c(=O)n(C)c1=O", "Potency": "inconclusive: 23.1 µM [cytotoxic, partial curve, poor fit]"}
{"smiles": "CCOC(=O)c1cc(-c2csc(N/N=C/c3ccccc3Cl)n2)on1", "Potency": "inconclusive: 32.6 µM [cytotoxic, single point]"}
{"smiles": "COc1ccccc1CNC(=O)c1ccc2nc(CCc3ccccc3)oc2c1", "Potency": "inactive"}
{"smiles": "O=C(Nc1nc2c(s1)CN(Cc1ccccc1)CC2)c1cccc(S(=O)(=O)N2CCc3ccccc32)c1", "Potency": "inconclusive: 20.6 µM [cytotoxic, single point]"}
{"smiles": "Nc1nn(S(=O)(=O)c2ccccc2)cc1-c1ccc([N+](=O)[O-])cc1", "activity change, negative = cytotoxic": "inconclusive: -14.7%"}
{"smiles": "COc1ccc2sc(NC(=O)NC(=O)c3c(Cl)cccc3Cl)nc2c1", "Potency": "inactive"}
{"smiles": "CC(/C=C/c1ccccc1)=N\\NC(=O)c1ccc2c(c1)OCCO2", "Potency": "inconclusive: 23.1 µM [cytotoxic, partial curve, poor fit]"}
{"smiles": "CC(=O)c1c(C)[nH]c2ccc(OCC(O)CNCCc3ccccc3)cc12", "note": "(stereo unspecified)", "activity change, negative = cytotoxic": "inconclusive: -79.8%"}
{"smiles": "Cc1cccc(CCNC(=O)c2cccc3c2C(=O)N(C2CCCCC2)C3)c1", "Potency": "inactive"}
{"smiles": "CCC/C=C/c1ccc(CN2C(C(C)C)C(=O)N(Cc3cn(CC4CCCCC4)nn3)CCS2(=O)=O)cc1", "note": "(stereo unspecified)", "Potency": "inconclusive: 25.9 µM [cytotoxic, partial curve, poor fit]"}
{"smiles": "Cc1ccc(N=C2NC(=O)/C(=C/C=C/c3ccco3)S2)cc1C", "Potency": "inconclusive: 29.1 µM [cytotoxic, single point]"}
{"smiles": "O=C(CSc1nnc(-c2ccc3c(c2)OCO3)o1)Nc1ncc(C(F)(F)F)cc1Cl", "Potency": "inconclusive: 20.6 µM [cytotoxic, single point]"}
{"smiles": "OC(c1ccc(Cl)cc1)c1nccc2ccccc12", "note": "(stereo unspecified)", "Potency": "inconclusive: 32.6 µM [cytotoxic, single point]"}
{"smiles": "CC1CCN(CC(=O)Nc2ccc(S(=O)(=O)N3CCC(C)CC3)cc2)CC1", "Potency": "inconclusive: 20.6 µM [cytotoxic, single point]"}
